Experimental data taken from paper PMC7862700.
This is a selection; strong and weak results do not stand in their true shares. For part of these data: At the low end of the ranking the order means little.

Target: T1, ELK1 (UniProt P19419)
T1 sequence: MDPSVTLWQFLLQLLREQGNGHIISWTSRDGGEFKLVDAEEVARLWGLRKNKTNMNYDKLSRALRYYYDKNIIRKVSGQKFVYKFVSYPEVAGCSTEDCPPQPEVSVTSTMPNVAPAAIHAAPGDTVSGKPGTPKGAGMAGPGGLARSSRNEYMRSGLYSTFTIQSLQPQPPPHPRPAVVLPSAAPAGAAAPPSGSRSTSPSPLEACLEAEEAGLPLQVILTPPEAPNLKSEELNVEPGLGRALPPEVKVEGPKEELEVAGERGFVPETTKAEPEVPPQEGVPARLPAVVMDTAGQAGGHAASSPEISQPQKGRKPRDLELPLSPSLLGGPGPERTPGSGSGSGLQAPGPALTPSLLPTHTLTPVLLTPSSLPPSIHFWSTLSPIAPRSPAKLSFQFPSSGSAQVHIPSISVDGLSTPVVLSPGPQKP
Experiment: DAPPL (digital affinity profiling via proximity ligation, sequencing)
Settings: 10 mM Tris-HCl pH 7.5, 50 mM NaCl, 1 mM DTT, 4% glycerol, room temperature, 30 min; GST-TFs on glutathione beads, 16-mer random dsDNA library, 0.1% …; high values mean tight binding; double strand, one strand shown; scale: fold enrichment (6-mer frequency, TF over GST control)

Row | Sequence | binding signal
1 | TATCCC | 1.65
2 | ACCTTT | 1.33
3 | CCTCCT | 1.45

Target: T2, SPIC (UniProt Q8N5J4)
T2 sequence: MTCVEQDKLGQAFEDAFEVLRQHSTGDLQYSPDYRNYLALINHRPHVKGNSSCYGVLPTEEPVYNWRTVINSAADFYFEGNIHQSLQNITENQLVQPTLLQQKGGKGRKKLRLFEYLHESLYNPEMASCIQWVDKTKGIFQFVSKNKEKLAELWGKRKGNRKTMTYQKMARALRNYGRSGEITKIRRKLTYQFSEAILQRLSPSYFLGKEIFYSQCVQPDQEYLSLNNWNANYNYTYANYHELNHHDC
Experiment: as above
Settings: 10 mM Tris-HCl pH 7.5, 50 mM NaCl, 1 mM DTT, 4% glycerol, room temperature, 30 min; GST-TFs on glutathione beads, 16-mer random dsDNA library, 0.1% …; high values mean tight binding; double strand, one strand shown; scale: fold enrichment (6-mer frequency, TF over GST control)

Row | Sequence | binding signal
4 | CCGTCA | 1.13
5 | AATCTT | 1.38
6 | TTGTAG | 1.02
7 | ATCCTA | 1.44
8 | CACCAC | 1.3
9 | GCCACT | 1.12
10 | ACCTGG | 1.18
11 | TGGAAT | 1.22
12 | TATCCC | 1.6
13 | ATCCGG | 2.35
14 | CTTTAC | 1.4
15 | TATACA | 1.28
16 | ATAGCC | 0.978
17 | CACTCA | 1.3
18 | CTGGTA | 1.28
19 | CCCTGA | 0.952
20 | TCAAAC | 1.19
21 | ACACGC | 0.994
22 | TCAACG | 1.1
23 | TTTCGG | 1.05

Row | Sequence | binding signal
24 | AACTCC | 1.32
25 | TCTCTC | 1.36
26 | ACGACC | 0.829
27 | ACTTGC | 1.36
28 | GCCCCC | 1.26
29 | CGTCCT | 1.27
30 | TGTTTA | 1.05
31 | TAAACT | 1.12
32 | AAGCGC | 1.14
33 | CCTTTA | 1.32
34 | ATAAGC | 1.08
35 | ACCTTT | 1.58
36 | TATCAA | 0.906
37 | CCTCCT | 1.47
38 | GTAGCT | 0.961
39 | ACTCAC | 1.25
40 | AAATAG | 0.943
41 | TCTGGC | 1.38
42 | AACAAG | 1.15
